The test system of the assay is xenografted tumor cells. As to the kind of experiment: Dose response in zebrafish xenografts: relative IC50 from the change in tumor volume. The class given is in vivo, human. The following applies: Danio rerio; 48 h treatment from 24 hpi, compared to solvent, drug applied to surrounding water, n = 3–5 fish per concentration. Here is the method:
To determine optimal drug concentrations, larvae bearing xenografted tumor cells were incubated with increasing drug concentrations 24 h post implantation (hpi), ranging from the concentrations used in previous cell culture experiments to the MTD(larvae) (Figure 2a). […] Using these concentrations, we evaluated whether HDACis were able to reach their specific enzymatic targets.
Right: representative images of immunohistochemical staining (c) Left: quantification of staining for acetylated histone H3. Right: representative images of immunohistochemical staining.
For treatment, larvae were incubated in freshly prepared buffer solution supplemented with 0.2 mM PTU, containing the drug of interest at increasing concentrations. Drug-containing solutions were administered at the beginning of the experiment and were not replaced during the incubation period. Solvent control was applied in the same manner as the drug treatments.

Compound `O=C(CCCCCCC(=O)Nc1ccccc1)NO` [vorinostat] yielded an IC50 of 15 µM. That is a double-digit micromolar value.

What is called IC50 is the concentration that gives 50% inhibition.

These data come from PMC7692187, “Rapid In Vivo Validation of HDAC Inhibitor-Based Treatments in Neuroblastoma Zebrafish Xenografts” (Pharmaceuticals, 2020).
